Earlier results in paper PMC8006131, “Pulse Dipolar EPR Reveals Double-Histidine Motif Cu^II−NTA Spin-Labeling Robustness against Competitor Ions” (The journal of physical chemistry letters, 2021).

Tested on: 6R1/28H/32H GB1
Set-up: method as in earlier work
Details: pH 7.4, cited from earlier work

**Q.** Which results are given for `O=C([O-])CN(CC(=O)[O-])CC(=O)[O-].[Cu+2]` [Cu^II–NTA, Cu^II-nitrilotriacetic acid]?
**A.** n (stoichiometry of binding) (75 μM protein, 2 mM CuII-NTA): 1.20; ΔH: -7.54 kcal/mol
